Laboratory results published in PubChem BioAssay AID1487 (National Center for Advancing Translational Sciences (NCATS), 2009).
Where “and” joins values, the source holds several entries; their conditions need not be identical. Equal entries are not always repeated. Some of the results follow. The main result of the screen is listed elsewhere. These columns were measured beside it and carry no call. Most of these compounds were active or inconclusive in the main read-out, so they are no random draw. The note in brackets gives the kind of curve behind each potency; many fits are weak.

Assay: qHTS Assay for Modulators of Lamin A Splicing
Details: HeLa LMNA splicing GFP/RFP minigene ratio, 48 h
Method in brief: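 S3 HeLa cells stably expressing lamin A-EGFP splicing minigene plus DsRed2, 600 cells/well, 48 h compound exposure at 37C. Laser-scanning cytometry; analysed as GFP (500-530 nm)/RFP (575-640 nm) total intensity ratio; 0.5% DMSO vehicle.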

[1] = measured here: GFP splicing reporter channel
[2] = measured here: RFP viability control channel

Question: For COc1ccccc1NC(=O)CCSc1nnc(-c2ccco2)o1, which AC50 [1] is on record?
Answer: The AC50 was 12.6 µM [falling, partial curve].

Question: For Cc1ccc(Cl)cc1NS(=O)(=O)c1ccc(N2CCCCS2(=O)=O)cc1, which AC50 [1] is on record?
Answer: The AC50 was 14.1 µM [falling, single point].

Question: With CC1(OC(=O)CCc2ccccc2)C(=O)C=C2C=C(c3ccc(C#N)cc3)N(C3CC3)C=C2C1=O (centres undefined) as the compound, how does the AC50 [1] read?
Answer: Its AC50 is 0.00631 µM [falling, full curve].

Question: Which AC50 [1] does the source give for O=C(Nc1cccc(Cl)c1N1CCCCC1)c1ccc2c(c1)OCCO2 here?
Answer: The AC50 was 35.5 µM [rising, single point].

Question: For O=C(Oc1ccc2ccccc2c1Br)N1CCCCCC1, which AC50 [1] is on record?
Answer: Its AC50 is 2.82 µM [falling, single point].

Question: With Fc1ccc(CNC(=S)Nc2cccc(C(F)(F)F)c2)cc1 as the compound, how does the AC50 [2] read?
Answer: The AC50 was 31.6 µM [rising, single point].

Question: What does the source list for CCCCC1=CC2=C(c3ccco3)C(=O)C(C)(OC(=O)c3ccc(OC)cc3)C(=O)C2=CN1C1CC1 (centres undefined)?
Answer: AC50 [1]: 0.0708 µM [rising, full curve]; AC50 [2]: 0.126 µM [rising, full curve]

Question: With CCOc1ccc(OCCN2C(=O)NC3(CCCc4ccccc43)C2=O)cc1 (centres undefined) as the compound, how does the AC50 [2] read?
Answer: The AC50 was 11.2 µM [rising, single point].

Question: Which AC50 [2] does the source give for CCc1nc(NCc2ccccn2)c2oc3ccccc3c2n1 here?
Answer: The AC50 was 14.1 µM [rising, partial curve].

Question: Which AC50 [1] does the source give for Cc1nnc(Sc2nc3ccccc3o2)c2ccccc12 here?
Answer: The AC50 was 22.4 µM [falling, single point].

Question: What about the AC50 [2] of the same compound?
Answer: The AC50 was 35.5 µM [falling, single point].

Question: For C/C(N)=C(/C#N)C(=O)COC(=O)C1CCN(C(=O)c2ccc(Cl)cc2)CC1, which AC50 [1] is on record?
Answer: The AC50 was 2 µM [falling, partial curve, poor fit].

Question: Which AC50 [2] does the source give for CCC1CCCCN1C(=O)c1cc(-c2ccc(Cl)c(Cl)c2)on1 (centres undefined) here?
Answer: Its AC50 is 35.5 µM [rising, single point].

Question: With COc1cccc(Nc2c3c(nc4c(-c5ccccc5)c(C)nn24)CCC3)c1 as the compound, how does the AC50 [1] read?
Answer: The AC50 was 12.6 µM [rising, partial curve].

Question: And the AC50 [2]?
Answer: Its AC50 is 22.4 µM [rising, partial curve].

Question: Which AC50 [2] does the source give for CC(=O)Nc1ccc2nc(NC(=O)COc3cccc(C)c3)sc2c1 here?
Answer: Its AC50 is 0.00891 µM [falling, full curve, poor fit].

Question: Which AC50 [1] does the source give for CCOc1ccccc1Nc1nc(-c2sc(NC(=O)c3cccc(Cl)c3)nc2C)cs1 here?
Answer: Its AC50 is 10 µM [falling, partial curve].

Question: And the AC50 [2]?
Answer: The AC50 was 11.2 µM [falling, partial curve].

Question: With O=C(c1cc(-c2ccncc2)nc2ccccc12)N1CCN(c2ccccn2)CC1 as the compound, how does the AC50 [2] read?
Answer: The AC50 was 10 µM [rising, partial curve].

Question: For COc1ccc(NC(=O)Nc2cccc([N+](=O)[O-])c2)cc1Cl, which AC50 [2] is on record?
Answer: Its AC50 is 14.1 µM [rising, partial curve].

Question: For Cc1cc(C)cc(NC(=O)c2cnc3sc(N4CCCC4)nn3c2=O)c1, which AC50 [1] is on record?
Answer: The AC50 was 25.1 µM [falling, single point].

Question: What does the source list for COc1cc(-c2nc3ccc4ccccc4c3c3c2CCC3)cc(OC)c1O?
Answer: AC50 [1]: 15.8 µM [rising, single point]; AC50 [2]: 14.1 µM [rising, partial curve, poor fit]

Question: For Cc1ccc(NC(=O)CSc2n[nH]c(=O)n2C2CC2)cc1S(=O)(=O)N1CCOCC1, which AC50 [2] is on record?
Answer: Its AC50 is 11.2 µM [rising, partial curve, poor fit].

Question: For Cc1ccccc1-n1nnnc1SC1CCOC1=O (centres undefined), which AC50 [2] is on record?
Answer: Its AC50 is 0.00316 µM [falling, full curve, poor fit].

Question: For N#Cc1ccc(-c2ccco2)nc1SCC(=O)c1ccc(Cl)cc1, which AC50 [1] is on record?
Answer: Its AC50 is 1 µM [rising, full curve, poor fit].

Question: Which AC50 [2] does the source give for COc1ccc(C)cc1NC(=O)N1CC(C)Sc2ccccc21 (centres undefined) here?
Answer: The AC50 was 0.1 µM [falling, single point].

Question: Which results are given for Clc1ccc(Cn2ncc3c(NCc4cccnc4)ncnc32)cc1?
Answer: AC50 [1]: 17.8 µM [rising, partial curve, poor fit]; AC50 [2]: 14.1 µM [rising, partial curve]

Question: With CN(C)c1ccc(/C=C2/SC(=O)N(CCN=C3NS(=O)(=O)c4ccccc43)C2=O)cc1 as the compound, how does the AC50 [1] read?
Answer: Its AC50 is 6.31 µM [falling, partial curve, poor fit].

Question: Which AC50 [1] does the source give for Cc1cc(/C=N/NC(N)=S)c(C)n1-c1ccc(Br)cc1 here?
Answer: The AC50 was 31.6 µM [rising, single point].

Question: Which AC50 [1] does the source give for COC(=O)c1c(NC(=O)CN2CCC3(O)CCCCC3C2c2ccccc2OC)sc(C)c1C (centres undefined) here?
Answer: Its AC50 is 14.1 µM [rising, single point].

Question: What about the AC50 [2] of the same compound?
Answer: The AC50 was 22.4 µM [rising, single point].

Question: Which AC50 [1] does the source give for CCC1CCCCN1S(=O)(=O)c1cc(C(=O)Nc2ccc(C)c(F)c2)ccc1F (centres undefined) here?
Answer: The AC50 was 1.58 µM [falling, full curve, poor fit].

Question: With CCCCCCCCC(=O)N/N=C/c1cccc(Br)c1 as the compound, how does the AC50 [2] read?
Answer: Its AC50 is 35.5 µM [falling, single point].

Question: Which results are given for CC[C@]1(O)C[C@@H]2CN(CCc3c([nH]c4ccccc34)[C@@](C(=O)OC)(c3cc4c(cc3OC)N(C)[C@H]3[C@@](O)(C(=O)OC)[C@H](OC(C)=O)[C@]5(CC)C=CCN6CC[C@]43[C@@H]65)C2)C1?
Answer: AC50 [1]: 0.2 µM [falling, partial curve, poor fit]; AC50 [2]: 2.82 µM [falling, full curve, poor fit]

Question: Which AC50 [2] does the source give for O=C(O)c1cccc2c1C(=O)c1ccccc1-2 here?
Answer: The AC50 was 0.00316 µM [falling, full curve, poor fit].

Question: With COCCn1c(C)cc(C(=O)COc2nc3ccccc3nc2C)c1C as the compound, how does the AC50 [2] read?
Answer: Its AC50 is 10 µM [rising, partial curve].

Question: With CC(C)CC(=O)N1CCN(Cc2ccccc2[N+](=O)[O-])CC1 as the compound, how does the AC50 [2] read?
Answer: The AC50 was 0.0501 µM [falling, full curve].

Question: Which AC50 [1] does the source give for COc1ccc(-n2cc(-c3ccccc3)c3c(NC4CCCC4)ncnc32)cc1 here?
Answer: Its AC50 is 22.4 µM [falling, single point].

Question: And the AC50 [2]?
Answer: The AC50 was 35.5 µM [falling, single point].

Question: For CCOC(=O)c1c(NC(=O)CSc2nnc(N)s2)sc(C)c1-c1ccc(C)cc1, which AC50 [1] is on record?
Answer: The AC50 was 10 µM [rising, partial curve].

Question: And the AC50 [2]?
Answer: The AC50 was 10 µM [rising, partial curve].

Question: Which AC50 [1] does the source give for COc1ccc(CNc2ccccc2SC)cc1OC here?
Answer: The AC50 was 20 µM [rising, single point].

Question: What about the AC50 [2] of the same compound?
Answer: Its AC50 is 31.6 µM [rising, single point].

Question: Which AC50 [1] does the source give for Cc1cc(/C([O-])=C(/C(=S)Nc2ccc(F)cc2)[n+]2ccccc2)c(C)n1-c1ccc(F)cc1 here?
Answer: Its AC50 is 14.1 µM [rising, single point].

Question: Which results are given for CCCCNC(=O)c1onc(CSc2cccc(OC)c2)c1C(=O)O?
Answer: AC50 [1]: 22.4 µM [rising, single point]; AC50 [2]: 20 µM [rising, single point]

Question: Which AC50 [2] does the source give for CCN(CC)c1ccc(C(=O)OCC(=O)Nc2sccc2C#N)cc1 here?
Answer: Its AC50 is 25.1 µM [rising, partial curve, poor fit].

Question: With O=C(Nc1nc(-c2ccccc2)ns1)c1cccs1 as the compound, how does the AC50 [2] read?
Answer: The AC50 was 22.4 µM [rising, single point].

Question: Which AC50 [1] does the source give for C=C(C)C1CC=C(C)CC1 (centres undefined) here?
Answer: Its AC50 is 0.0562 µM [falling, partial curve].

Question: And the AC50 [2]?
Answer: The AC50 was 0.794 µM [falling, partial curve, poor fit].

Question: For CCCCn1c(SCC2CCCCO2)nc2cc(S(N)(=O)=O)ccc21 (centres undefined), which AC50 [2] is on record?
Answer: The AC50 was 35.5 µM [rising, single point].

Question: Which results are given for COc1ccc2[nH]cc(CCNc3ncnc4ccc(-c5cccc(C#N)c5)cc34)c2c1?
Answer: AC50 [1]: 7.08 µM [falling, partial curve]; AC50 [2]: 15.8 µM [falling, single point]

Question: Which AC50 [2] does the source give for Cc1ccc(Cl)cc1N1CCN(C(=O)C2CCCN(S(=O)(=O)c3cnc[nH]3)C2)CC1 (centres undefined) here?
Answer: The AC50 was 12.6 µM [rising, single point].

Question: What does the source list for CN(C)CCOC(c1ccccc1)c1ccccc1 (tested in a mixture with another compound)?
Answer: AC50 [1]: 1.12 nM [falling, full curve] and 2.24 µM [rising, partial curve]; AC50 [2]: 0.001 µM [falling, full curve]

Question: With O=C(/C=C/c1ccc([N+](=O)[O-])cc1)Nc1ncc([N+](=O)[O-])s1 as the compound, how does the AC50 [2] read?
Answer: Its AC50 is 3.98 µM [rising, full curve].

Question: With COc1ccc(OC)c(CNC(=O)c2cnc3c(C)cccn3c2=O)c1 as the compound, how does the AC50 [1] read?
Answer: The AC50 was 11.2 µM [rising, single point].

Question: Which AC50 [1] does the source give for CCN(CC)S(=O)(=O)c1cccc(-c2nnc(SCc3nc4ccccc4s3)o2)c1 here?
Answer: The AC50 was 11.2 µM [rising, partial curve].

Question: What about the AC50 [2] of the same compound?
Answer: The AC50 was 15.8 µM [rising, single point].

Question: With Cc1ccc(-c2nnc(N3CCN(C(=O)Cn4c(=O)n(C)c5ccccc54)CC3)c3ccccc23)cc1 as the compound, how does the AC50 [2] read?
Answer: The AC50 was 25.1 µM [rising, single point].

Question: For CCCCN(CCCNC(=O)CN1N=C(c2ccc(C)cc2)CCC1=O)c1ccccc1, which AC50 [1] is on record?
Answer: Its AC50 is 12.6 µM [falling, partial curve].

Question: With Cc1csc(NC(=S)Nc2cccc(Cl)c2)n1 as the compound, how does the AC50 [2] read?
Answer: Its AC50 is 12.6 µM [rising, partial curve, poor fit].

Question: Which AC50 [1] does the source give for Cc1ccc(NC2=C/C(=N/S(=O)(=O)c3cccs3)c3ccccc3C2=O)cc1 here?
Answer: The AC50 was 3.98 µM [falling, full curve].

Question: And the AC50 [2]?
Answer: Its AC50 is 3.16 µM [falling, full curve].

Question: With O=C(CCCc1cccs1)Nc1nc(-c2ccc(F)cc2)cs1 as the compound, how does the AC50 [2] read?
Answer: Its AC50 is 35.5 µM [rising, single point].

Question: Which AC50 [2] does the source give for Clc1ccc(CSc2snnc2-c2ccccc2)cc1 here?
Answer: The AC50 was 35.5 µM [rising, single point].

Question: What does the source list for O=C(Nc1ccccc1F)c1ccc(S(=O)(=O)NCC2CCCO2)cc1 (centres undefined)?
Answer: AC50 [1]: 35.5 µM [rising, single point]; AC50 [2]: 31.6 µM [rising, single point]

Question: With Oc1ccc(/C(Cc2ccccn2)=N\Nc2ccccc2)c(O)c1 as the compound, how does the AC50 [2] read?
Answer: The AC50 was 31.6 µM [rising, single point].
